# Reference: publication PMC7819943, “Rice protein-binding microarrays: a tool to detect cis-acting elements near promoter regions in rice”
# Sequences of proteins named here, by UniProt entry; tags and fusion partners are left off.
# UniProt Q0JBA9, entry or part of it: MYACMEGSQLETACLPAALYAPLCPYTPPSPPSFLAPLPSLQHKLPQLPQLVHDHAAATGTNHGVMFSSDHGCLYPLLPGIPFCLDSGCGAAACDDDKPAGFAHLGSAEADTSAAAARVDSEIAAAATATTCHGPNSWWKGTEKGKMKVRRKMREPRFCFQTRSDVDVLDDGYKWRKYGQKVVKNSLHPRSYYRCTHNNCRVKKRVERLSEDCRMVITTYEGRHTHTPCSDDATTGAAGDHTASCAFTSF
# Some of the results follow.
# Molecular target: OsWRKY34 (Oryza sativa, UniProt Q0JBA9 1-250)
# Experiment: protein-binding microarray (RPBM); PBS, 2% BSA, 51.3 ng/ul salmon testes DNA, 50 uM zinc acetate, 200 nM TF, 25 C, 1 h; high values mean tight binding
# Conditions: protein: recombinant; tags: N-terminal polyhistidine and DsRed monomer fusion (pET32a); label: CyDye5-dUTP incorporated in the synthesized complementary strand; 3' TTTTT single-stranded linker to array surface; dsDNA, one strand shown
# How it was run: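 Using Ni–NTA, transcription factors fused N-terminally to polyhistidine and DsRed were purified after expression in E. coli BL21-CodonPlus. These were incubated at 200 nM with a blocked, double-stranded custom Agilent array for 1 h at 25 °C in a buffer containing 50 µM zinc acetate, and the array was washed. The binding signal is per-feature fluorescence intensity (arbitrary units) on an Axon 4000B scanner.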
row,Sequence,binding signal
1,TTTCCTTGTCGCAAACCGCGCTGGCCCCTCTGCAAACTCGCGGAGTCACCTAGTGCAG,9030 fluorescence intensity (a.u.)
2,ACCGGCTCCCGCTCGTCCTCCGCTTCAGCGTCATCTCCCGCGGAGTCACCTAGTGCAG,9150 fluorescence intensity (a.u.)
3,GGTTTTGGTTGACGTGGCGCCTACATGGCGGTTTTGACCGCGGAGTCACCTAGTGCAG,8940 fluorescence intensity (a.u.)
4,TGTTGTTGTTATCCCTGTCGCCGCCTGAACAATGGAGTAACGGAGTCACCTAGTGCAG,8080 fluorescence intensity (a.u.)
5,TCACTCACTCACTCATCACGCTTTCGATCATCCGCTTTTCCGGAGTCACCTAGTGCAG,11900 fluorescence intensity (a.u.)
6,CAATCGGAAGTTGCTGGTCCCAGTCTGTCTTGGTCTCTTTCGGAGTCACCTAGTGCAG,9660 fluorescence intensity (a.u.)
7,CCCACTCATCATCGTCTTTTTCACTAGCGAGCAACCCCACCGGAGTCACCTAGTGCAG,8290 fluorescence intensity (a.u.)
8,GAGAAGCCTCCATTGCCTCGTTTTTGTTTGATCTTCTCAACGGAGTCACCTAGTGCAG,10800 fluorescence intensity (a.u.)
9,TTGCCGACACACGAACTCCACCCCACGGCCCACGCTAGCCCGGAGTCACCTAGTGCAG,9340 fluorescence intensity (a.u.)
10,GTTCGTTCGCCCTGCTGCTTCTCCCGCCGCATCCATCCCGCGGAGTCACCTAGTGCAG,9640 fluorescence intensity (a.u.)
11,CCTCGGTGTTGGAGTTTGGTGTCTGGTGTGCCGCCCGCCGCGGAGTCACCTAGTGCAG,9840 fluorescence intensity (a.u.)
12,GCTTCGCCTGCCGCTCCGGCCCATCAAAGCTTTTCCATCCCGGAGTCACCTAGTGCAG,10900 fluorescence intensity (a.u.)
13,CCCATCACCATAACCCTCTCACATCCTTCATCATGCATTACGGAGTCACCTAGTGCAG,8880 fluorescence intensity (a.u.)
14,TTTTAATGTGTCGTTCTCCAATCCTGCAAAACGCGTTCACCGGAGTCACCTAGTGCAG,9130 fluorescence intensity (a.u.)
15,ACACACAAACTTCCAACTTTTCCATCACATCGTTCCAATTCGGAGTCACCTAGTGCAG,11500 fluorescence intensity (a.u.)
16,TCGCTCACCTCGCGGTGTGCCCCTCCGTCGCCAGCTTTCCCGGAGTCACCTAGTGCAG,9640 fluorescence intensity (a.u.)
17,GGTCGAGAAGGCTTGTTTTTCTATTCCTAGTTTCTATCACCGGAGTCACCTAGTGCAG,8160 fluorescence intensity (a.u.)
18,ATTGCAGTGATTAATTTTTGTCTCATTTACGCTTCATTCACGGAGTCACCTAGTGCAG,11100 fluorescence intensity (a.u.)
19,GTTTTTGCTTTTAAAGTTTGACCACTCGTCTTATTTAATTCGGAGTCACCTAGTGCAG,10900 fluorescence intensity (a.u.)
20,CACCCACCCACGCACGCACAAACAGACGCAGACAGACACACGGAGTCACCTAGTGCAG,8860 fluorescence intensity (a.u.)
21,AGGGAGAGTGTGGGTGCGTGGGGCATATGGTGGTGCGGTGCGGAGTCACCTAGTGCAG,9950 fluorescence intensity (a.u.)

row,Sequence,binding signal
1,CACTTCCTACTTTCATTTAGTGCTGACTTGTTGCAACTTTCGGAGTCACCTAGTGCAG,9320 fluorescence intensity (a.u.)
2,TGGTATAAAACGCCCGCCTAATCTCCTTCGCTCTCTTCTTCGGAGTCACCTAGTGCAG,9260 fluorescence intensity (a.u.)
3,TCCCATACCTTCCTGATATTCGCGTTTTTTTTATCAGTTTCGGAGTCACCTAGTGCAG,11900 fluorescence intensity (a.u.)
4,TATTCTTACTTTATTATTATTGTGGTTTTTCCTGTCTACGCGGAGTCACCTAGTGCAG,9820 fluorescence intensity (a.u.)
5,AACCAACCAACCACGTCGATCGCTCGCAGTCGCCGCCGCGCGGAGTCACCTAGTGCAG,8700 fluorescence intensity (a.u.)
6,AGCTCTAGTCAAACGTCATTTGGACTAGCTATGGTTCATTCGGAGTCACCTAGTGCAG,8140 fluorescence intensity (a.u.)
7,AACACATGTTTTAACCTATTTTTTATCATTATTTCCTATCCGGAGTCACCTAGTGCAG,8590 fluorescence intensity (a.u.)
8,ATAATCTCGAGCGATATCGTCTCACCGGCGTCAGCGTGCACGGAGTCACCTAGTGCAG,8830 fluorescence intensity (a.u.)
9,GCAAAATATCAGTTTTCTCCACACCCACAGTTCAGCTGCCCGGAGTCACCTAGTGCAG,9240 fluorescence intensity (a.u.)
10,TTCTCAATTCCAAACTTCAACTTTCCCGTTTACCGTTAGCCGGAGTCACCTAGTGCAG,10400 fluorescence intensity (a.u.)
11,AACTCGGTGGTGACCACGCGTCCACATCTCTCATCTTTCTCGGAGTCACCTAGTGCAG,11000 fluorescence intensity (a.u.)
12,GATGTGCCATGACATCGCGCGTCACCTTTTTATTTTTCTCCGGAGTCACCTAGTGCAG,8140 fluorescence intensity (a.u.)
13,CGCGCCGCGCGGCGAGGGTGGTGGTGGGTGAGCGGCGAGCCGGAGTCACCTAGTGCAG,10200 fluorescence intensity (a.u.)
14,GTTCCACCATTTAATCGCGTGGGACCCACCTTGAACATAGCGGAGTCACCTAGTGCAG,8880 fluorescence intensity (a.u.)
15,TTTACTAAACTCGATCAGTTCTTCCCATATACTCTTGTGACGGAGTCACCTAGTGCAG,9070 fluorescence intensity (a.u.)
16,CCACACTGCGACGCAACTCTTGTCTCTACTGTTTTATCTCCGGAGTCACCTAGTGCAG,12800 fluorescence intensity (a.u.)
17,AACTCTTTCTGCCCACTTCCTCAACCCATGCTTATCTACCCGGAGTCACCTAGTGCAG,8240 fluorescence intensity (a.u.)
18,TGATGATGCACGCTGATTGACCGTTCTATGCAGATCCCATCGGAGTCACCTAGTGCAG,10100 fluorescence intensity (a.u.)
19,CAACCTCACCTACTTCCACTTCCTCGACACCAACGGCGTCCGGAGTCACCTAGTGCAG,9590 fluorescence intensity (a.u.)
20,ACCGTCGCTAAGAAACTCTTCCACGGCTACTTGCCTCTCTCGGAGTCACCTAGTGCAG,8380 fluorescence intensity (a.u.)
21,AGAGAGAAATATGTTTTTTTGGGTTGGGACACTTATTGAGCGGAGTCACCTAGTGCAG,9940 fluorescence intensity (a.u.)

row,Sequence,binding signal
1,GTTAGGGAGGAAGAGATGGCGACACTGTTTTGTTGGAGTCCGGAGTCACCTAGTGCAG,8460 fluorescence intensity (a.u.)
2,TCGGTACAATTCCCTACCAAGTTCATCGTATTTTTTTTTCCGGAGTCACCTAGTGCAG,9780 fluorescence intensity (a.u.)
3,CAGGAGCTTTTTCAGCCGGCATGTCTCTAATTGTCTTCCACGGAGTCACCTAGTGCAG,8110 fluorescence intensity (a.u.)
4,GCTTTTCCCACCTCAGACGCACTCCCGCGAAGTACCGTTACGGAGTCACCTAGTGCAG,8870 fluorescence intensity (a.u.)
5,GGTTGTTTTTTTTCTCTCCTTGGTATAAGTTGGTCTAGCTCGGAGTCACCTAGTGCAG,8390 fluorescence intensity (a.u.)
6,TCAGTGCTCGATGCATACCCACATGTGAAGTCTTGGATCACGGAGTCACCTAGTGCAG,8840 fluorescence intensity (a.u.)
7,TAATGTCAAACTTTTATAACTTTGACCATCAATAACTTTACGGAGTCACCTAGTGCAG,9030 fluorescence intensity (a.u.)
8,GCGGCGCTCCGCCCTCCGGTATAAACCGCGCGCCTCTCGACGGAGTCACCTAGTGCAG,8360 fluorescence intensity (a.u.)
9,CTTCCTATCGTCTTATTCAACTCTACATTTTGTTAAGAAGCGGAGTCACCTAGTGCAG,8770 fluorescence intensity (a.u.)
10,CTCGCCGGCGTCGTCTCCTCCCGCGCGCCACCCAAAAATACGGAGTCACCTAGTGCAG,8580 fluorescence intensity (a.u.)
11,CTCTTTCACGTGTTTGACTTACATGGTTGCTTCACTTTTTCGGAGTCACCTAGTGCAG,11900 fluorescence intensity (a.u.)
12,CACTCAATTCCTTTCTCATAGTTTCCATTTTCCTTGCATCCGGAGTCACCTAGTGCAG,8670 fluorescence intensity (a.u.)
13,ATTGCCTCGTTTTTCTCTATAGACTATCTCCATGTTAGTACGGAGTCACCTAGTGCAG,8830 fluorescence intensity (a.u.)
14,GCACAACCAAAGCCACATGCTAATCACACAAGCACAACCCCGGAGTCACCTAGTGCAG,8620 fluorescence intensity (a.u.)
15,ACTGTACGTATAAATGATCCATCCTCTCCTCTTCTTCTTACGGAGTCACCTAGTGCAG,10000 fluorescence intensity (a.u.)
16,TCTGCGCGCGCCGCTGCCATTCACACGCATCGAGTAAGCTCGGAGTCACCTAGTGCAG,9510 fluorescence intensity (a.u.)
17,CTGTATTTTTTGGGAGTTTCTGACATCAATTTGCACGTTTCGGAGTCACCTAGTGCAG,8970 fluorescence intensity (a.u.)
18,GTTATTAGTCATCTGTGCTTTGGAAATTTGATCGCGTTTTCGGAGTCACCTAGTGCAG,8840 fluorescence intensity (a.u.)
19,GGAGTAGTATTTGGTTGCGATCCATATTTTTCGTAGCATTCGGAGTCACCTAGTGCAG,10100 fluorescence intensity (a.u.)
20,GTGAGGGCTAAACAGTGGGGTATATTATTAAAATTGCTCTCGGAGTCACCTAGTGCAG,9830 fluorescence intensity (a.u.)
21,TCTCTGTTCATATGCATGCATATGTCCATTCTGAATTCCTCGGAGTCACCTAGTGCAG,8850 fluorescence intensity (a.u.)

# Some of the entries above, reformatted:
row	Sequence	binding signal
1	GTTAGGGAGGAAGAGATGGCGACACTGTTTTGTTGGAGTCCGGAGTCACCTAGTGCAG	8460 fluorescence intensity (a.u.)
3	CAGGAGCTTTTTCAGCCGGCATGTCTCTAATTGTCTTCCACGGAGTCACCTAGTGCAG	8110 fluorescence intensity (a.u.)
16	TCTGCGCGCGCCGCTGCCATTCACACGCATCGAGTAAGCTCGGAGTCACCTAGTGCAG	9510 fluorescence intensity (a.u.)
17	CTGTATTTTTTGGGAGTTTCTGACATCAATTTGCACGTTTCGGAGTCACCTAGTGCAG	8970 fluorescence intensity (a.u.)
19	GGAGTAGTATTTGGTTGCGATCCATATTTTTCGTAGCATTCGGAGTCACCTAGTGCAG	10100 fluorescence intensity (a.u.)
21	TCTCTGTTCATATGCATGCATATGTCCATTCTGAATTCCTCGGAGTCACCTAGTGCAG	8850 fluorescence intensity (a.u.)

# Exported bar-delimited: part of the list above
row | Sequence | binding signal
15 | ACTGTACGTATAAATGATCCATCCTCTCCTCTTCTTCTTACGGAGTCACCTAGTGCAG | 10000 fluorescence intensity (a.u.)
16 | TCTGCGCGCGCCGCTGCCATTCACACGCATCGAGTAAGCTCGGAGTCACCTAGTGCAG | 9510 fluorescence intensity (a.u.)

# (list continues)

row,Sequence,binding signal
1,AGGGATACAATTTAGATTCAGTTGTCAGTTGAGGGAGTCACGGAGTCACCTAGTGCAG,9020 fluorescence intensity (a.u.)
2,AAGTCAGTTTCGATATAAGACATGGTATGTGGTGGGTCCTCGGAGTCACCTAGTGCAG,8070 fluorescence intensity (a.u.)
3,TGGGTTGGTGTAGATAATAATGTAACTGGTTCAGTTGTAGCGGAGTCACCTAGTGCAG,8830 fluorescence intensity (a.u.)
4,ATAGGACCAGAAAGCCTACACACTACTACCACGTCCATCCCGGAGTCACCTAGTGCAG,8480 fluorescence intensity (a.u.)
5,AAATCCACCACTCAAACCACCCGCAAATTCACCTTGAGTCCGGAGTCACCTAGTGCAG,8020 fluorescence intensity (a.u.)
6,GTCGCCGTCCCATCGGCCTCCGCTTGCCGCCCGCTCCGCGCGGAGTCACCTAGTGCAG,8290 fluorescence intensity (a.u.)
7,CCCTTGGGTTGGGTTGTGTTGCTCCCTCTGCTGCATTAATCGGAGTCACCTAGTGCAG,18100 fluorescence intensity (a.u.)
8,GTCGTTTTTAACCTCGCTGTAGCAAACAGTTTGGAGTTTTCGGAGTCACCTAGTGCAG,8770 fluorescence intensity (a.u.)
9,GTCTACTTCCTTTGTAATCTGTTCTCATCATCATCAATCCCGGAGTCACCTAGTGCAG,9000 fluorescence intensity (a.u.)
10,GTCTTGACTCATCCATGTACGTATGCGTATGCCACTACGACGGAGTCACCTAGTGCAG,8180 fluorescence intensity (a.u.)
11,TCTTACTGCTGGTGAAGCATACTCCTACTTGTAACATCATCGGAGTCACCTAGTGCAG,8670 fluorescence intensity (a.u.)
12,ACACATACGTATGCTACTACTTCGCTTAAGCTATCTGATTCGGAGTCACCTAGTGCAG,8350 fluorescence intensity (a.u.)
13,TCTTGACCCGCCGCTCCGACGATCTCGCGCGTACGTACGTCGGAGTCACCTAGTGCAG,8330 fluorescence intensity (a.u.)
14,CTCCCTGAGTCTAGTCCCGATCCCCACCGTTGACCGAAGTCGGAGTCACCTAGTGCAG,19900 fluorescence intensity (a.u.)
15,CTCAACTGCTATGTCACCAATGCCTACATCCGCATTGACACGGAGTCACCTAGTGCAG,9690 fluorescence intensity (a.u.)
16,TTCAGTAGCGTCGTTCGCTCCCTGGCTTCTCCATTTCTTCCGGAGTCACCTAGTGCAG,8590 fluorescence intensity (a.u.)
17,TCCTTTTGTTTTCCTATCTAATTACTTCTTATATCTATTCCGGAGTCACCTAGTGCAG,9510 fluorescence intensity (a.u.)
18,GATTGACCCGCCATACAAACTACCACTCGTTGCCAGTCACCGGAGTCACCTAGTGCAG,9360 fluorescence intensity (a.u.)
19,AGTACTGCATTACTATATAACCTTCGAATTCTCATTAACTCGGAGTCACCTAGTGCAG,8380 fluorescence intensity (a.u.)
20,ATTTCTCTGGAAGGATTGTGCTTAGTTTCTACTTTTTTTACGGAGTCACCTAGTGCAG,8320 fluorescence intensity (a.u.)
21,CTCTCATCACCTTGTGTTTCCTTCCCTTCTCACATCGAGACGGAGTCACCTAGTGCAG,8320 fluorescence intensity (a.u.)
